# Taken from: PubChem BioAssay AID1159578 (Peter MacCallum Cancer Centre, 2015)
# Assay: 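siRNA pools altering how lymphatic endothelial cells close a scratch wound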 (primary screen)
# Cells: human lymphatic endothelial cells
# Reagent: siRNA pool against human genes, 40 nM
# Time to read-out: 48 h after transfection
# Detection: 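High-content imaging of dye-stained cells in a scratch assay measures filled wound area and nuclei per well; duplicate means given as ratio to mock and robust z-score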
# Reading the numbers: migration robust z-score: higher = faster migration into the scratch; nuclei per well: higher = more cells in the well
# Active means: 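Pools averaging fewer than 3300 nuclei are never called; remaining pools count as changed when migration robust z lies outside -2 to 2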
# Meaning of the calls: active = migration changed; inactive = no migration change, or too few cells
# The whole screen tested about 18,000 reagents; this is an unselected part. About 1,030 of them (5.7%) count as active. 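Inactive calls also include pools with fewer than 3300 nuclei, whose migration was not assessed.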 The raw values are shown without normalisation. Not all columns of the deposit are shown. No sequences are given here.
The first 4 entries, ahead of the listing:
target gene,migration robust z-score,migration class with cell-count check,"nuclei per well, duplicate mean",Outcome
OPTN,0.24,migration z between -2 and 2; enough cells,4174,inactive
SPRY2,-0.72,migration z between -2 and 2; enough cells,5700,inactive
RIOK1,0.8,migration z between -2 and 2; enough cells,6218,inactive
IL15,-1.25,migration z between -2 and 2; enough cells,6287,inactive

The list itself, from the start:
target gene,migration robust z-score,migration class with cell-count check,"nuclei per well, duplicate mean",Outcome
OPTN,0.24,migration z between -2 and 2; enough cells,4174,inactive
SPRY2,-0.72,migration z between -2 and 2; enough cells,5700,inactive
RIOK1,0.8,migration z between -2 and 2; enough cells,6218,inactive
IL15,-1.25,migration z between -2 and 2; enough cells,6287,inactive
AGTR1,0.86,migration z between -2 and 2; enough cells,6662,inactive
GLO1,-1.01,migration z between -2 and 2; enough cells,5344,inactive
TMEM63C,-2.32,migration z below -2; enough cells,4602,active
LRP10,-0.48,migration z between -2 and 2; enough cells,7084,inactive
CCL28,0.99,migration z between -2 and 2; enough cells,5799,inactive
MFAP3,-0.23,migration z between -2 and 2; enough cells,5664,inactive
LRRC49,-0.1,migration z between -2 and 2; enough cells,5742,inactive
OR5K2,0.94,migration z between -2 and 2; enough cells,5402,inactive
PARN,-0.32,migration z between -2 and 2; enough cells,5824,inactive
STIM2,0.18,migration z between -2 and 2; enough cells,5868,inactive
SLC16A4,1.06,migration z between -2 and 2; enough cells,5240,inactive
PELI3,0.02,migration z between -2 and 2; enough cells,6628,inactive
SFMBT2,-0.04,migration z between -2 and 2; enough cells,5886,inactive
RSPH1,0.68,migration z between -2 and 2; enough cells,6090,inactive
WDR76,-0.6,migration z between -2 and 2; enough cells,6706,inactive
RAP1A,0.39,migration z between -2 and 2; enough cells,4529,inactive
CYP27A1,0.02,migration z between -2 and 2; enough cells,5106,inactive
WNT5A,-1.94,migration z between -2 and 2; enough cells,3870,inactive
KRTAP22-1,0.19,migration z between -2 and 2; enough cells,4991,inactive
SLC6A3,0.62,migration z between -2 and 2; enough cells,4708,inactive
CEP41,-1.87,migration z between -2 and 2; enough cells,4136,inactive
S100A10,-0.38,migration z between -2 and 2; enough cells,4934,inactive
ATG16L1,0.47,migration z between -2 and 2; enough cells,5916,inactive
PMS1,-1.68,migration z between -2 and 2; enough cells,4198,inactive
OR5H15,0.24,migration z between -2 and 2; enough cells,5518,inactive
OSBPL6,1.56,migration z between -2 and 2; enough cells,5624,inactive
ADGRE4P,1.14,migration z between -2 and 2; enough cells,6084,inactive
ZNF462,1.62,migration z between -2 and 2; enough cells,5626,inactive
TERF2IP,-0.34,migration z between -2 and 2; enough cells,4804,inactive
GRK7,-1.64,migration z between -2 and 2; enough cells,3875,inactive
RRP8,1.55,migration z between -2 and 2; enough cells,5512,inactive
FAM174A,0.26,migration z between -2 and 2; enough cells,6365,inactive
TMEM220,-1.42,migration z between -2 and 2; enough cells,5120,inactive
TSSK3,-2.26,migration z below -2; enough cells,4278,active
AMFR,0.08,migration z between -2 and 2; enough cells,5494,inactive
